According to US6638968B1, “Use of prodigiosin for treating diabetes mellitus” (Korea Research Institute of Bioscience and Biotechnology, priority 2000, dated 2003):
For at least one compound, name, drawing or mass did not settle the structure.

Columns and labels:
[1] = test system: cytokine mRNA expression in lienal cells; assay: Cytokine mRNA expression in lienal cells of NOD mice by RT-PCR; format: in vivo, mouse; details: lienal cells of 11-week-old NOD mice, i.p. from 8 weeks every other day
NOD mice = assay: Prevention of clinical diabetes in NOD mice (urine glucose by uropaper); format: in vivo, mouse; details: 10 mg/kg intraperitoneally from 8 to 24 weeks of age

CCCCCC1=C/C(=C/c2[nH]c(-c3ccc[nH]3)cc2OC)N=C1C [prodigiosin]
IFN-gamma mRNA expression [1]: strongly suppressed
IL-2 mRNA expression [1]: strongly suppressed
IL-4 mRNA expression [1]: increased expression
IL-6 mRNA expression [1]: strongly suppressed
IL-10 mRNA expression [1]: strongly suppressed
IL-12 mRNA expression [1]: strongly suppressed
suppression of clinical diabetes (NOD mice): complete suppression
urine glucose (NOD mice; measured every week): not detected
